Assay results published in publication PMC8278074.
Numbering of substitutions follows the chain as printed. Results are given in words; binding and its absence hold for the method and conditions named. Binding seen in cells or lysates may run through a third protein. Some binding calls cover weakened binding; strength is not graded here. For part of these data: Sequences can lack the tags named with a protein.

The chains behind the UniProt entries cited, without tags or fusion partners.
UniProt P46937: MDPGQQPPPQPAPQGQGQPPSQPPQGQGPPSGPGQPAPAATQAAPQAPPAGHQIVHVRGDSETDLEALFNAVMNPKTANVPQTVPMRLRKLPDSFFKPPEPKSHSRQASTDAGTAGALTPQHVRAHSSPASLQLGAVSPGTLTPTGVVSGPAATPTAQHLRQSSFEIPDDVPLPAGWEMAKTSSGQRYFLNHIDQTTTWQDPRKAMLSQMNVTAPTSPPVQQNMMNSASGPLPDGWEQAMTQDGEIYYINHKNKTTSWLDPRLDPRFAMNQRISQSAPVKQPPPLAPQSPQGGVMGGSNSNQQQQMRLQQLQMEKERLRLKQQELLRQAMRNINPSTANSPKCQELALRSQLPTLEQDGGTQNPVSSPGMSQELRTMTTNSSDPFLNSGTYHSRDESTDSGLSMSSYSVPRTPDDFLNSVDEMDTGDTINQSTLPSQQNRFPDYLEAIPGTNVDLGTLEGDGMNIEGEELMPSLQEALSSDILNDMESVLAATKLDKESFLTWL

Assays:
[1] = target: T1, 3 × Flag‐TAK1 (TGF‐β‐activated kinase 1) (UniProt O43318); test: condition: only cells treated with the TAK1 kinase inhibitor 5Z-7-oxozeaenol; co-IP; as a2, cells treated with the TAK1 kinase inhibitor 5Z-7-oxozeaenol
T1 sequence: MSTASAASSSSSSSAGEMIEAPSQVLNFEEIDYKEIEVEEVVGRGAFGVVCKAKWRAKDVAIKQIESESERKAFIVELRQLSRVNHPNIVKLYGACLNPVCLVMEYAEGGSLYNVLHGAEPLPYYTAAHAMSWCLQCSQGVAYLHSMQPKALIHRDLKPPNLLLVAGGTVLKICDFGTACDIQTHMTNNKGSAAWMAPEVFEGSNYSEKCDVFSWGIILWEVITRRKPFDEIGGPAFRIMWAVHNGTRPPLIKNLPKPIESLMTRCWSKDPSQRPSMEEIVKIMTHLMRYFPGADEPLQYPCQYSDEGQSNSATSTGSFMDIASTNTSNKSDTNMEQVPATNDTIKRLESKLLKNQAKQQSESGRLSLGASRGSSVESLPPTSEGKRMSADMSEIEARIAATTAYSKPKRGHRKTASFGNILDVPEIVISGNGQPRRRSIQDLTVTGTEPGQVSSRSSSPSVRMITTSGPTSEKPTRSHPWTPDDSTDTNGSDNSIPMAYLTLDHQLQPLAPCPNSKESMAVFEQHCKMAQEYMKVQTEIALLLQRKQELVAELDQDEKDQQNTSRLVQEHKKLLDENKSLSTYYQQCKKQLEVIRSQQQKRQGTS

[2] = target: T1, 3 × Flag‐TAK1 (TGF‐β‐activated kinase 1); test: co-IP; lysate (weak lysis buffer) of MKN45-derived gastric cancer spheroids; antibody 5 h at 4°C, protein A/G plus agarose, Western blot; methods name a 3×Flag antibody, the legend anti-TAK1 antibodies
TAK1^E29A = target: T2, TAK1^E29A (UniProt O43318); test: as above
T2 sequence: T1 sequence with E29A

yes‐associated protein (YAP) (from UniProt P46937 1-504)
binding [1]: no binding | binding [2]: binds | binding (TAK1^E29A): no binding
